Assay results: PubChem BioAssay AID1671190 (National Center for Advancing Translational Sciences (NCATS), 2021)
Hit rate of the full screen: of about 580,000 compounds, about 6,100 (1.1%) were called active. Inconclusive results, whose numbers are uncertain, are shown with a selection of clear calls. The call rests on the fitted dose curve; in most records, active means well fitted inhibition curve with a large enough effect; inconclusive means small, poorly fitted or top-dose-only effect, or another doubt; inactive means no such curve, though single readings can be large or run the other way. Potencies of inconclusive entries are doubtful fits and often do not repeat.

Sequences of proteins named here, by UniProt entry; tags and fusion partners are left off. A change or cut given only in a name is not applied to a line headed by its entry.
UniProt P18054: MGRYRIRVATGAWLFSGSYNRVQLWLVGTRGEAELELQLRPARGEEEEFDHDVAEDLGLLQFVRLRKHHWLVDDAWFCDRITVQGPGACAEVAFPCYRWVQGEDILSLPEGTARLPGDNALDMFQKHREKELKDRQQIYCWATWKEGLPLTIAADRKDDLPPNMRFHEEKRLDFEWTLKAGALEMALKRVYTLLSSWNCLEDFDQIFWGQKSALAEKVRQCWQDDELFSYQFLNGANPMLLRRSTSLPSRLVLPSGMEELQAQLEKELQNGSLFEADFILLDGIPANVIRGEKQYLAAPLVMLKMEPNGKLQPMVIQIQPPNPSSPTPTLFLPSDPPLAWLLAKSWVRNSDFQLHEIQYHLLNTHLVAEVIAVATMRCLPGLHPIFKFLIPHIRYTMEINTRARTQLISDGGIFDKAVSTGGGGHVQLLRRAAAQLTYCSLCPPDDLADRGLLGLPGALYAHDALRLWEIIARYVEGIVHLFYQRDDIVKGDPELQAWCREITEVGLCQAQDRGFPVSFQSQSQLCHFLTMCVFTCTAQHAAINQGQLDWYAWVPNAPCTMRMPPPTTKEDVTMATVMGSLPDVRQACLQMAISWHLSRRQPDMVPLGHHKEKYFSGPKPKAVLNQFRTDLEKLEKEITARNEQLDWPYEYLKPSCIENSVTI

What follows are compounds tested against Polyunsaturated fatty acid lipoxygenase ALOX12 (Homo sapiens) (UniProt P18054) (assay: Primary qHTS assay for inhibitors of human arachidonate 12S-lipoxygenase (ALOX12): Round 2). Conditions: purified 12hLO, xylenol orange hydroperoxide absorbance; series mostly up to 108 µM.
Method in brief: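 Purified human 12hLO at 150 nM in 25 mM Hepes, 0.01% Triton X-100, pH 7.0, preincubated 15 min at room temperature with compound. Reaction started with 40 uM arachidonic acid, 30 min at room temperature. Hydroperoxide measured by Fe-xylenol orange, 573/405 nm absorbance ratio.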
Potency means the concentration at half of the fitted maximal effect.

SMILES | Potency
O=C(CC1CC2CCC1C2)OCC(=O)c1ccc2c(c1)OCO2 (stereo not drawn) | inconclusive: 2 µM [inhibitor, single point]
Cn1ccc2cc(S(=O)(=O)N3CCN(C(=O)Nc4cccc(F)c4)CC3)ccc21 | inconclusive: 141 µM [inhibitor, partial curve, poor fit]
Cc1[nH]n(C(N)=S)c(=O)c1N=Nc1ccc2ccccc2c1 | inconclusive: 44.7 µM [inhibitor, partial curve, poor fit]
CCN(CC)c1ccc(NS(=O)(=O)c2ccc3c(c2)CCCC3)cc1C(=O)O | active: 7.94 µM
COC(=O)[C@@H](Cc1cccnc1)NC(=O)[C@H]1CN(C(=O)c2cccnc2)CCN1C(=O)C1CCCCC1 | inactive
CCCn1c(C)cc(C(=O)Cn2nc(C)c(C)c(C#N)c2=O)c1C | inactive
CC1C(=O)N(Cc2cn(Cc3ccco3)nn2)CCS(=O)(=O)N1Cc1ccc(-c2ccc(F)cc2Cl)cc1 (stereo not drawn) | inconclusive: 56.2 µM [inhibitor, partial curve, poor fit]
CC(C)(C)c1nnc(NS(=O)(=O)c2ccc(F)cc2)s1 | inconclusive: 39.8 µM [inhibitor, partial curve, poor fit]
O=[N+]([O-])c1ccccc1N/N=C\c1ccccc1Cl | inactive
COc1ccc(C(=O)c2ccsc2N)cc1 | inconclusive: 31.6 µM [inhibitor, partial curve, poor fit]
COCC(=O)/C=C1\Sc2ccccc2N1C | inactive
c1ccc(Oc2cc3c(cn2)NCCN(CC2CCOCC2)C3)cc1 | inconclusive: 63.1 µM [inhibitor, partial curve, poor fit]
c1ccc(-c2nnc3ccc(Nc4ccc(N5CCOCC5)cc4)nn23)nc1 | inconclusive: 39.8 µM [inhibitor, single point]
COC(=O)C1=C(C)NC(=O)/C1=C\c1cc(C)n(-c2ccccc2)c1C | inconclusive: 44.7 µM [inhibitor, partial curve, poor fit]
COc1ccc2c(c1)C(C)(Cc1ccc(C(=O)c3ccccc3)cc1)C(=O)N2 (stereo not drawn) | inconclusive: 112 µM [inhibitor, single point]
CCOC(=O)c1cnc2c(OC)cccc2c1N1CCN(c2ccccc2F)CC1 | inconclusive: 89.1 µM [inhibitor, partial curve, poor fit]
Cc1ccc(-c2c(C(=O)c3ccc(Br)cc3)[nH]c(N)c2C(=O)NCc2ccc(Cl)cc2)cc1 | inconclusive: 44.7 µM [inhibitor, partial curve, poor fit]
S=c1[nH]nc(COc2ccccc2)n1/N=C/C(Cl)=C/c1ccccc1 | inconclusive: 50.1 µM [inhibitor, partial curve, poor fit]
COc1ccc(OC)c(NS(=O)(=O)c2ccc(Cl)s2)c1 | inconclusive: 2.24 µM [inhibitor, full curve, poor fit]
COC(=O)C1=C(C)N(Cc2ccc(C(F)(F)F)cc2)C(=NCc2ccccc2C(F)(F)F)NC1c1ccccc1 (stereo not drawn) | inconclusive: 79.4 µM [inhibitor, single point]
CCCC(=N)C1=C(O)CC(CC(C)SCC)CC1=O (stereo not drawn) | inactive
CC(=O)N1CCN(C(C(=O)O)c2c[nH]c3ccccc23)CC1 (stereo not drawn) | inconclusive: 0.355 µM [inhibitor, full curve, poor fit]

SMILES | Potency
CO[C@H]1C(=O)N(C2CCN(S(=O)(=O)c3ccc(C#N)cc3)CC2)[C@H]1c1ccncc1 | inactive
NC(C(=O)O)c1cccnc1 (stereo not drawn) | inconclusive: 1.78 µM [inhibitor, full curve, poor fit]
CCC(C)C(=O)Nc1ccc(S(=O)(=O)N2CCCC2)cc1 (stereo not drawn) | inactive
CCCCNC(=O)COC(=O)C1CCN(S(=O)(=O)c2ccc3c(c2)OCCO3)CC1 | inconclusive: 126 µM [inhibitor, single point]
c1ccc(CNc2ccnc(-c3cccnc3)n2)cc1 | inconclusive: 39.8 µM [inhibitor, partial curve, poor fit]
CCc1cccc(C)c1NC(=O)COC(=O)C1CC(=O)N(CCc2ccc(OC)c(OC)c2)C1 (stereo not drawn) | inconclusive: 56.2 µM [inhibitor, partial curve, poor fit]
Cc1ccc(N2CC(=O)Nc3c(oc4nc(-c5ccccc5)cc(C)c34)C2=O)cc1 | inconclusive: 35.5 µM [inhibitor, single point]
CCCNC(=O)C(Cc1cccc(OC)c1)NC(=O)c1ccc(C#N)cc1 (stereo not drawn) | inconclusive: 79.4 µM [inhibitor, single point]
O=c1oc(Cl)c(Cl)c2ccccc12 | inactive
CC(C)NS(=O)(=O)c1ccc2c(c1)oc(=O)n2C | inactive
CC(C)(C)OC(=O)NCCCCCNC(=O)c1[nH]cnc1C(=O)Nc1ccon1 | inactive
CCOC(=O)c1sc(NC(=O)c2ccccc2C(=O)O)c(C(=O)OCC)c1C | inactive
CSCCC(NS(=O)(=O)c1ccc2[nH]c(=O)c(=O)[nH]c2c1)C(=O)O (stereo not drawn) | inconclusive: 100 µM [inhibitor, single point]
Cc1ccc(C(=O)NC(=S)NCC(=O)c2ccccc2)cc1 | inconclusive: 28.2 µM [inhibitor, partial curve, poor fit]
Cc1cc(=O)n(CC(=O)Nc2ccccc2F)c(-c2ccc(F)cc2)n1 | inactive
CSc1c(Cl)c(Cl)c(Cl)c(Cl)c1Cl | inactive
COc1ccc(-n2c(=O)c(C#N)cc3c(=O)n4cccc(C)c4nc32)cc1 | inactive
CCC(C)NC(=O)Nc1c(NC)c2ccccc2oc1=O (stereo not drawn) | inactive
CC1=C(C)CC(C(=O)NC(C)C(C)(C)C)C(C(=O)O)C1 (stereo not drawn) | inconclusive: 7.94 µM [inhibitor, full curve, poor fit]
CC(C)c1ccc(C(=O)Nc2ccc(N3CCOCC3)cc2)cc1 | inconclusive: 17.8 µM [inhibitor, full curve, poor fit]
COC(=O)C1=CO[C@@H](O[C@@H]2O[C@H](CO)[C@@H](O)[C@H](O)[C@H]2O)[C@@H]2[C@@H](C)[C@@H](O)C[C@H]12 | inconclusive: 100 µM [inhibitor, single point]

At a glance, some entries already given:
SMILES | Potency
CCC(C)C(=O)Nc1ccc(S(=O)(=O)N2CCCC2)cc1 (stereo not drawn) | inactive
CCCCNC(=O)COC(=O)C1CCN(S(=O)(=O)c2ccc3c(c2)OCCO3)CC1 | inconclusive: 126 µM [inhibitor, single point]
